These are yes or no findings as the source states them, for the method shown. No end group written: not given here. *: point of attachment. Biotin = O=C1N[C@H]2[C@H](CS[C@H]2CCCCC(=O)*)N1
Key:
peptide P1 = molecular target: T1, peptide P1; test: alanine scan peptide ELISA, 1 mM DTT, A450
T1 sequence (peptide, biotin at the N-terminus, linked by the SGSG linker): SGSGAIFSPQIEEPSQCPD

peptide P8 = molecular target: T2, peptide P8; test: alanine scan peptide ELISA, 1 mM DTT, A450
T2 sequence (peptide, biotin at the N-terminus, linked by the SGSG linker): SGSGCIFSPQIAEPSQCPD

binding (peptide P1): no binding (tested: 0.05 µg/mL mAb 2)
binding (peptide P8): no binding (tested: 0.05 µg/mL mAb 2)
B1: mAb 2 (antibody, IgG1, V domains shown)
VH: QVQLKESGGGLVQPGGSLTLSCATSGFTFTDHYMSWVRQPPGKALEWLAFIRNKAKGYTTEYNASVRGRFTISRDNSQNIVYLQMNTLRTEDSATYYCARDGVGIAYWGQGTLVTVSA
VL: SIVMTQSPLSLPVSLGDQASISCRSSQSLENINGNTYLNWYFQKPGQSPQLLIYRVSNRVSGVLDRFSGSGSGTDFTLKITRVEAEDLGVYFCLQVTHVPWTFGGGTKLEIK
notes: Murine monoclonal antibody purified from ascites (or hybridoma supernatant in the first Pepscan); constant regions are not; also called full length murine mAb 2
